These results are taken from PMC6991697.

By UniProt entry, the sequences of proteins in these tests, tags left out.
UniProt P0DMV8: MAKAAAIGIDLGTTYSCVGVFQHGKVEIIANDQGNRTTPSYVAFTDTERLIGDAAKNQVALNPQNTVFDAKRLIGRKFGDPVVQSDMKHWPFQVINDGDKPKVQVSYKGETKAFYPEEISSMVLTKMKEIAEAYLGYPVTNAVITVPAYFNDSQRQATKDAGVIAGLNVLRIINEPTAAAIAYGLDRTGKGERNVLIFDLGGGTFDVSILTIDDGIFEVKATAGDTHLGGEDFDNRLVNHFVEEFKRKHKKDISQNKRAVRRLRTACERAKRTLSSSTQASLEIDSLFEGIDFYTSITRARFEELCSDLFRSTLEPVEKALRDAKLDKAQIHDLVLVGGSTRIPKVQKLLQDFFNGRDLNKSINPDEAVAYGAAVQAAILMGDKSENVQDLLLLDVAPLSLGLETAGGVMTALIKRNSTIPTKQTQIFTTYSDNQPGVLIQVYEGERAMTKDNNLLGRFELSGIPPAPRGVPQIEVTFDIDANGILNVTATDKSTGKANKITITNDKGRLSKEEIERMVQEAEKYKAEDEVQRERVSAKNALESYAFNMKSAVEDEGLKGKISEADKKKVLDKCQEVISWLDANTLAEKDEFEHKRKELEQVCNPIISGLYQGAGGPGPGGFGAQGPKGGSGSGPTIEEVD

This test has as its target T1, LIM and SH3 protein 1 (LASP1), endogenous (human (endogenous in CAL27 and HN6)) (UniProt Q14847).
T1 sequence: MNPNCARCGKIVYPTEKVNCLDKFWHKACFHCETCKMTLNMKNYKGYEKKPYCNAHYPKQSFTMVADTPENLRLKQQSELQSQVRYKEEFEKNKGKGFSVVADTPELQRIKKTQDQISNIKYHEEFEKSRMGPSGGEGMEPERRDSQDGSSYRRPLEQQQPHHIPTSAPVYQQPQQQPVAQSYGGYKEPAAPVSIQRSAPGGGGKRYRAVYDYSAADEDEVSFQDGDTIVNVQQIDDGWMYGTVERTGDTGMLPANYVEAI
Kind of test: co-IP; endogenous proteins; cell lysates (1 mg/mL) with anti-LASP1 or anti-HSPA1A antibody and protein A/protein G agarose beads overnight at 4°C, washed with PBS 3 times; Western blot with anti-LASP1 or anti-HSPA1A.

Results are given in words; binding and its absence hold for the method and conditions named. Binding seen in cells or lysates may run through a third protein. Some entries that bind do so weakly or less than the wild type.

Turning to “Heat shock protein family A member 1A (HSPA1A), endogenous (from UniProt P0DMV8 1-641)”, the binding entry is reported as “binds”.
